Experimental data reported in ChEMBL document CHEMBL4303122, “Identification of potential treatments for COVID-19 through artificial intelligence-enabled phenomic analysis of human cells infected with SARS-CoV-2” (2020).
The full ranking holds about 1,600 compounds; the median of “Hit score” is about 0.13, and the highest 2% start at about 0.46. The list shows a part of the results.

System: SARS-CoV-2
Test: Antiviral activity against SARS-CoV-2 (USA-WA1/2020 strain) measured by imaging in HRCE cells at MOI 0.4 after 96 hrs (reported as hit score from 0-1 for on-disease vs off-disease activity: scores >0.6 considered hits)
Format: functional, Homo sapiens

Row | Structure (SMILES) | Hit score
1 | COc1ccccc1OCC(O)CO (stereo unspecified) [GUAIFENESIN] | 0.2008
2 | Nc1nc(CC(=O)Nc2ccc(CCNC[C@H](O)c3ccccc3)cc2)cs1 [MIRABEGRON] | 0.07205
3 | C[C@]12CCC(=O)C[C@@H]1CC[C@@H]1[C@@H]2CC[C@]2(C)[C@@H](O)CC[C@@H]12 [STANOLONE] | 0.1952
4 | Oc1c(Cl)cc(Cl)c(Cl)c1Cc1c(O)c(Cl)cc(Cl)c1Cl [HEXACHLOROPHENE] | 0.5286
5 | Cc1c(N(C)C)c(=O)n(-c2ccccc2)n1C [AMINOPYRINE] | 0.1344
6 | O=C1O[C@H]([C@@H](O)CO)C(O)=C1O [ASCORBIC ACID] | 0.06898
7 | Cc1cc(/C=C/C#N)cc(C)c1Nc1ccnc(Nc2ccc(C#N)cc2)n1 [RILPIVIRINE] | 0.1167
8 | OCC(O)COc1cccc2ccccc12 (stereo unspecified) | 0.1908
9 | COc1ccc(/C=C/C(=O)Nc2ccccc2C(=O)O)cc1OC | 0.2555
10 | CCN(CC)CCNC(=O)c1c(C)[nH]c(/C=C2\C(=O)Nc3ccc(F)cc32)c1C [SUNITINIB] | 0.1025
11 | Nc1ccncc1 [DALFAMPRIDINE] | 0.1111
12 | Nc1cc(Cl)c(N=C2NCCN2)c(Cl)c1 [APRACLONIDINE] | 0.2069
13 | COc1ccc(OC)c(C(O)CNC(=O)CN)c1 (stereo unspecified) [MIDODRINE] | 0.1739
14 | CC(S)C(=O)NCC(=O)O (stereo unspecified) [TIOPRONIN] | 0.1099
15 | C[C@H]1C[C@H]2[C@@H]3CCC4=CC(=O)C=C[C@]4(C)[C@@]3(F)[C@@H](O)C[C@]2(C)[C@@]1(O)C(=O)CO [BETAMETHASONE] | 0.07895
16 | O=C(CCc1ccc(O)cc1)c1c(O)cc(O)cc1O [PHLORETIN] | 0.1024
17 | NC(=O)c1cccc2cn(-c3ccc([C@@H]4CCCNC4)cc3)nc12 [NIRAPARIB] | 0.06081
18 | CC[C@@H](C(N)=O)N1CCCC1=O | 0.04659
19 | C=CCN1CCc2nc(N)sc2CC1 [TALIPEXOLE] | 0.06674
20 | COc1cc2nccc(Oc3ccc(NC(=O)Nc4cc(C)on4)c(Cl)c3)c2cc1OC [TIVOZANIB] | 0.1611
21 | CC(C)(C#N)c1cc(Cn2cncn2)cc(C(C)(C)C#N)c1 [ANASTROZOLE] | 0.2057
22 | CC(=O)c1ccc2c(c1)N(CCCN(C)C)c1ccccc1S2 [ACEPROMAZINE] | 0.08942
23 | C[N+](C)(C)CCO [CHOLINE] | 0.1686
24 | CO/N=C(\C(=O)N[C@@H]1C(=O)N2C(C(=O)O)=C(COC(N)=O)CS[C@H]12)c1ccco1 [CEFUROXIME] | 0.29

Row | Structure (SMILES) | Hit score
25 | Nc1ccn([C@H]2CC[C@@H](CO)O2)c(=O)n1 [ZALCITABINE] | 0.1927
26 | COc1cccc(C(=O)CCN[C@@H](C)[C@H](O)c2ccccc2)c1 [OXYFEDRINE] | 0.05957
27 | Nc1nc2ccc(OC(F)(F)F)cc2s1 [RILUZOLE] | 0.1438
28 | CN1CCC(=C2c3ccccc3CCc3cccnc32)CC1 [AZATADINE] | 0.09283
29 | COc1ccc2c(c1)c(CC(=O)O)c(C)n2C(=O)c1ccc(Cl)cc1 [INDOMETHACIN] | 0.1032
30 | OC[C@H]1O[C@H](O[C@]2(CCl)O[C@H](CCl)[C@@H](O)[C@@H]2O)[C@H](O)[C@@H](O)[C@H]1Cl [SUCRALOSE] | 0.1698
31 | CO[C@H]1/C=C/O[C@@]2(C)Oc3c(C)c(O)c4c(O)c(cc(O)c4c3C2=O)NC(=O)/C(C)=C\C=C\[C@H](C)[C@H](O)[C@@H](C)[C@@H](O)[C@@H](C)[C@H](OC(C)=O)[C@@H]1C [RIFAMYCIN] | 0.1815
32 | CC(=O)OCC(=O)[C@@]1(O)[C@@H](C)C[C@H]2[C@@H]3CCC4=CC(=O)C=C[C@]4(C)[C@@]3(F)[C@@H](O)C[C@@]21C [BETAMETHASONE ACETATE] | 0.2562
33 | C(=C\c1ccccc1)/CN1CCN(C(c2ccccc2)c2ccccc2)CC1 [CINNARIZINE] | 0.3702
34 | COc1ccc(C(=O)N2CCCC2=O)cc1 | 0.178
35 | CN1C2CCCC1CC(NC(=O)c1nn(C)c3ccccc13)C2.Cl (stereo unspecified) [GRANISETRON HYDROCHLORIDE] | 0.1701
36 | CCN(CC)CC(=O)Oc1ccc(NC(C)=O)cc1 [PROPACETAMOL] | 0.2265
37 | Cl.OC(CNCC(O)C1CCc2cc(F)ccc2O1)C1CCc2cc(F)ccc2O1 (stereo unspecified) [NEBIVOLOL HYDROCHLORIDE] | 0.4783
38 | O=C(O)c1cc(/N=N/c2ccc(O)c(C(=O)O)c2)ccc1O [OLSALAZINE] | 0.0313
39 | CC(=O)NCCCS(=O)(=O)O [ACAMPROSATE] | 0.1885
40 | CNC(=O)c1cc(Oc2ccc(NC(=O)Nc3ccc(Cl)c(C(F)(F)F)c3)c(F)c2)ccn1 [REGORAFENIB] | 0.2806
41 | CC[C@@H]1/C=C(\C)C[C@H](C)C[C@H](OC)[C@H]2O[C@@](O)(C(=O)C(=O)N3CCCC[C@H]3C(=O)O[C@H](/C(C)=C/[C@@H]3CC[C@H](Cl)[C@H](OC)C3)[C@H](C)[C@@H](O)CC1=O)[C@H](C)C[C@@H]2OC [PIMECROLIMUS] | 0.2951
42 | CC(C)(C)NCC(O)COc1cccc2c1CCC(=O)N2 (stereo unspecified) [CARTEOLOL] | 0.1646
43 | N[C@@H]1[C@H]2CN(c3nc4c(cc3F)c(=O)c(C(=O)O)cn4-c3ccc(F)cc3F)C[C@@H]12 [TROVAFLOXACIN] | 0.134
44 | CC(C)(C(=O)O)c1ccc(C(O)CCCN2CCC(C(O)(c3ccccc3)c3ccccc3)CC2)cc1 (stereo unspecified) [FEXOFENADINE] | 0.1118
45 | COc1ccc([C@@H]2CC(=O)c3c(O)cc(O[C@@H]4O[C@H](CO[C@@H]5O[C@@H](C)[C@H](O)[C@@H](O)[C@H]5O)[C@@H](O)[C@H](O)[C@H]4O)cc3O2)cc1O [HESPERIDIN] | 0.0964
46 | CC#CC(=O)N1CCC[C@H]1c1nc(-c2ccc(C(=O)Nc3ccccn3)cc2)c2c(N)nccn12 [ACALABRUTINIB] | 0.1279
47 | O=C[C@H](O)[C@@H](O)[C@H](O)CO [XYLOSE] | 0.1093
48 | CO[C@H]1C[C@@H]2CC[C@@H](C)[C@@](O)(O2)C(=O)C(=O)N2CCCC[C@H]2C(=O)O[C@H]([C@H](C)C[C@@H]2CC[C@@H](OC(=O)C(C)(CO)CO)[C@H](OC)C2)CC(=O)[C@H](C)/C=C(\C)[C@@H](O)[C@@H](OC)C(=O)[C@H](C)C[C@H](C)/C=C/C=C/C=C/1C [TEMSIROLIMUS] | 0.4599

Part of the list above, in CSV form:
Row,Structure (SMILES),Hit score
28,CN1CCC(=C2c3ccccc3CCc3cccnc32)CC1 [AZATADINE],0.09283
29,COc1ccc2c(c1)c(CC(=O)O)c(C)n2C(=O)c1ccc(Cl)cc1 [INDOMETHACIN],0.1032

(more compounds)

Row | Structure (SMILES) | Hit score
49 | C=CC[C@]1(O)CC[C@H]2[C@@H]3CCC4=CC(=O)CCC4=C3C=C[C@@]21C [ALTRENOGEST] | 0.04669
50 | NS(=O)(=O)c1cc(C(=O)O)cc(N2CCCC2)c1Oc1ccccc1 [PIRETANIDE] | 0.1486
51 | CN(C)CCCN1c2ccccc2Sc2ccccc21 [PROMAZINE] | 0.07876
52 | O=C(OCCO)c1ccccc1O | 0.157
53 | Cc1cc(C(C)(C)C)c(O)c(C)c1CC1=NCCN1 [OXYMETAZOLINE] | 0.2228
54 | CC(C)(C)C(=O)Oc1ccc(S(=O)(=O)Nc2ccccc2C(=O)NCC(=O)O)cc1 | 0.1753
55 | CC(C(=O)O)c1ccc2c(c1)Cc1cccnc1O2 (stereo unspecified) [PRANOPROFEN] | 0.2215
56 | C[C@H]1COc2c(C3(N)CC3)c(F)cc3c(=O)c(C(=O)O)cn1c23 [PAZUFLOXACIN] | 0.1099
57 | OC[C@H]1NC[C@H](O)[C@@H](O)[C@H]1O | 0.1151
58 | C[C@@]12CCc3occc3[C@H]1CC[C@@]13C[C@@H](CC[C@H]12)[C@@](O)(CO)C3 [CAFESTOL] | 0.168
59 | COC(=O)C1=C(C)NC(C)=C(C(=O)OCCN2CCN(C(c3ccccc3)c3ccccc3)CC2)C1c1cccc([N+](=O)[O-])c1 (stereo unspecified) [MANIDIPINE 6300] | 0.142
60 | COC(c1ccccc1)(c1ccccc1)[C@H](Oc1nc(C)cc(C)n1)C(=O)O [AMBRISENTAN] | 0.06687
61 | O=C(NO)c1ccc(O)c(O)c1 | 0.1979
62 | Cc1ccccc1-c1cc(N2CCN(C)CC2)ncc1N(C)C(=O)C(C)(C)c1cc(C(F)(F)F)cc(C(F)(F)F)c1 [NETUPITANT] | 0.1649
63 | NCCNCCNCCNCCN | 0.008276
64 | CC(C)OC(=O)[C@H](C)N[P@](=O)(OC[C@H]1O[C@@H](n2ccc(=O)[nH]c2=O)[C@](C)(F)[C@@H]1O)Oc1ccccc1 [SOFOSBUVIR] | 0.2045
65 | CC(C)CN(C[C@@H](O)[C@H](Cc1ccccc1)NC(=O)O[C@H]1CO[C@H]2OCC[C@H]21)S(=O)(=O)c1ccc(N)cc1 | 0.38
66 | Oc1cccc2cccnc12 [OXYQUINOLINE] | 0.1471
67 | Cc1cc2c(cc1S(N)(=O)=O)S(=O)(=O)CCC2 | 0.2902
68 | CC(C)c1ccc2oc3nc(N)c(C(=O)O)cc3c(=O)c2c1 [AMLEXANOX] | 0.03856
69 | COC(=O)Nc1nc2cc(C(=O)c3ccccc3)ccc2[nH]1 [MEBENDAZOLE] | 0.2334
70 | CCOC(=O)[C@H](CCc1ccccc1)N[C@@H](C)C(=O)N1Cc2ccccc2C[C@H]1C(=O)O | 0.1
71 | C#C[C@]1(O)CC[C@H]2[C@@H]3CCc4cc(OC5CCCC5)ccc4[C@H]3CC[C@@]21C [QUINESTROL] | 0.3887

Looked up above.
Value for Cc1cc(C(C)(C)C)c(O)c(C)c1CC1=NCCN1 [OXYMETAZOLINE] under Hit score: 0.2228
Value for COC(c1ccccc1)(c1ccccc1)[C@H](Oc1nc(C)cc(C)n1)C(=O)O [AMBRISENTAN] under Hit score: 0.06687
